# At least one compound was matched to its structure with a doubt left.
# Experiment: Precipitate formation in the DMSO solvent used
# Type: physicochemical
# Conditions: DMSO solvent used in testing
structure (smiles),measurement,value
"Cc1ccc(S(=O)(=O)N2CC3C(C2)C3Nc2ncc3cc(-c4ccccc4Cl)c(=O)n(-c4ccc(F)cc4)c3n2)cc1 (stereo not shown) [Compound No. 15, 6-(2-Chlorophenyl)-8-(4-fluorophenyl)-2-[3-(toluene-4-sulphonyl)-3-aza-bicyclo[3.1.0]hex-6-ylamino]-8H-pyrido[2,3-d]pyrimidin-7-one]",formed a precipitate in the DMSO solvent used,formed a precipitate in the DMSO solvent used

# Source: patent US20090131430A1, “PYRIDO'2,3-DIPYRIMIDINES AS ANTI-INFLAMMATORY AGENTS” (priority 2004, published 2009)
